Measured values reported in PubChem BioAssay AID2685 (National Center for Advancing Translational Sciences (NCATS), 2010).
The other results are listed elsewhere or left out. The main result of the screen is listed elsewhere. These columns were measured beside it and carry no call. The list favours compounds with an active or inconclusive main result. Potencies come from curve fits of mixed quality, noted in brackets.

Assay: qHTS Assay for Lipid Storage Modulators in Drosophila S3 Cells;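 as to cell number change: cells counted by Cell Tracker Red CMTPX staining in the red channel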
Conditions: BODIPY lipid droplet fluorescence, 18-24 h; for cell number change: measured here: cell count max response, cells fed with added oleic acid
Method in brief: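 Laser-scanning cytometry quantifies lipid droplet accumulation (500–530 nm total intensity; droplet/cell object ratio) in oleic acid-fed (400 uM added) Drosophila S3 cells treated with a concentration series. 20 uM Triacsin C defined 100% inhibition.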

[1] = measured here: lipid fluorescence (Fed channel) AC50, cells fed with added oleic acid
[2] = measured here: cell number channel AC50, cells fed with added oleic acid

Row | Structure (SMILES) | cell number change [%] | AC50 [1] | AC50 [2]
1 | O=C(CCc1n[nH]c(=O)[nH]c1=O)Nc1cccc([N+](=O)[O-])c1 | 7.05 | 7.31 µM [rising, single point] | 
2 | Cc1nn(-c2ccccc2)c(C)c1NC(=O)COC(=O)/C=C/c1ccccc1 |  | 29.1 µM [rising, single point] | 
3 | CS(=O)(=O)c1ccc(NC(=O)C2CCCN(C(=O)c3ccc(Cl)cc3)C2)cc1 (stereo unspecified) | 0.857 | 0.461 µM [rising, single point] | 
4 | Cc1sc2ncnc(SCc3ccco3)c2c1C | 96.5 |  | 10.3 µM [rising, partial curve]
5 | O=C(c1nnsc1S(=O)(=O)c1ccc(Cl)cc1)N1CCOCC1 | -63.4 |  | 5.17 µM [falling, partial curve, poor fit]
6 | CC1CCC2(CC1)NC(=O)N(CC(=O)c1ccc(Cl)s1)C2=O (stereo unspecified) | -13.2 | 5.8 µM [rising, full curve] | 
7 | CCCCC(Sc1nc(N)c(NC(=O)c2ccc(OC)cc2)c(=O)[nH]1)C(=O)O (stereo unspecified) | 41.7 | 0.164 µM [falling, full curve, poor fit] | 
8 | COc1ccc2oc(C(=O)NC(C)(C)C)c(C)c2c1 | -1.09 | 23.1 µM [falling, single point] | 
9 | O=c1c(-c2ccc(Br)cc2)[n+]([O-])c2ccccc2n1OCc1ccccn1 | -22.4 |  | 4.11 µM [falling, single point]
10 | O=C(Nc1ccc2nc(N3CCOCC3)sc2c1)c1ccc(F)cc1 | 3.35 | 0.731 µM [rising, single point] | 
11 | CCOc1ccc2ccccc2c1/C=N/NC(=O)CNC(=O)C(c1ccccc1)c1ccccc1 | -23.6 | 16.4 µM [falling, single point] | 
12 | O=C(COC(=O)CCC(=O)c1ccc(Cl)cc1)NC1CC1 | 41.1 |  | 
13 | CN1CCCN(S(=O)(=O)c2ccccc2)c2nc3ccccc3nc21 | 8.48 | 0.411 µM [rising, full curve, poor fit] | 
14 | N#CC[C@H](Cc1ccccc1)N1CC[C@@H](O)CCC1=O | 23.1 | 29.1 µM [rising, single point] | 
15 | Cc1[nH]c2ccccc2c1SCc1n[nH]c(=S)n1C | 24.3 |  | 
16 | O=C(NCCc1cnc[nH]1)Nc1cccc(C(F)(F)F)c1 | -24.1 | 6.51 µM [falling, single point] | 
17 | CCn1c(C)nc2cc(C(=O)OCCC(F)(F)F)ccc21 | -60.7 | 23.1 µM [falling, partial curve] | 10.3 µM [falling, partial curve, poor fit]
18 | COc1ccccc1/C=C/C(=O)NC(=S)NCC1CCCO1 (stereo unspecified) | 39.7 | 29.1 µM [rising, single point] | 25.9 µM [rising, single point]
19 | C=CCc1ccc(OCC(O)CN2CCN(c3ccccc3)CC2)c(OC)c1 (stereo unspecified) | -38.5 | 18.4 µM [falling, single point] | 18.4 µM [falling, single point]
20 | C[C@@H](NC(=O)c1nc[nH]c1C(=O)N[C@H](C)c1ccccc1)c1ccccc1 | -34.9 | 1.84 µM [rising, partial curve] | 13 µM [falling, single point]

Row | Structure (SMILES) | cell number change [%] | AC50 [1] | AC50 [2]
21 | CC(C)CCNC(=O)NC(=O)CSc1nnc(-c2ccccc2F)n1N |  | 0.366 µM [falling, single point] | 4.11 µM [falling, partial curve]
22 | CC1CCCC(C)N1C(=O)CCN1C(=O)C2C3C=CC(C3)C2C1=O (stereo unspecified) | 20 | 20.6 µM [rising, single point] | 
23 | CN(C)c1nc2n(c(=O)n1)CCS2 | -2.26 | 0.00651 µM [falling, full curve] | 
24 | CS(=O)(=O)c1ccccc1C(=O)N1CCN(S(=O)(=O)c2ccc(C3CCCCC3)cc2)CC1 |  | 0.291 µM [rising, partial curve] | 
25 | CCOc1ccc(C(CCc2ccccc2)NC(=O)c2ccc(OC)c(OC)c2)cc1OCC (stereo unspecified) | -10.9 |  | 
26 | C/C(=N\NC(N)=S)c1ccc(-n2ccnc2)cc1 | 1.08 | 0.164 µM [rising, single point] | 
27 | CCn1nc(C)c(C2C(C#N)=C(N)OC3=C2C(=O)CC(C)(C)C3)c1C (stereo unspecified) | -17.6 | 29.1 µM [rising, single point] | 
28 | CCC1CCCCN1CC(=O)c1c(C)[nH]c2cc(C)ccc12 (stereo unspecified) | -9.22 |  | 
29 | CC(C)Oc1cccc(C(=O)N/N=C/c2coc3ccccc3c2=O)c1 | 6.07 |  | 
30 | COc1ccc(-n2c(=O)cc(N3CCCCCC3)[nH]c2=O)cc1 | -37.7 | 0.411 µM [falling, full curve] | 1.64 µM [falling, full curve]
31 | CC(C)N(Cc1ccccc1)C(=O)COC(=O)/C=C/c1cnc2ccccc2n1 | 43.3 |  | 2.59 µM [rising, full curve]
32 | CC(C)=CC1C(C(=O)NCCOc2ccccc2)C1(C)C (stereo unspecified) | 18.6 | 0.58 µM [rising, single point] | 
33 | Cc1nn(Cc2ccc(Cl)cc2)c2sc(C(=O)OCC(N)=O)cc12 |  | 4.11 µM [rising, partial curve, poor fit] | 0.92 µM [rising, partial curve]
34 | Cn1cccc1Cc1nnc(SCC(=O)Nc2ccc(F)cc2F)n1-c1ccc(F)cc1 | 36.8 |  | 29.1 µM [rising, single point]
35 | CCOc1ccc2nc(N3CCC(C(=O)N4CCN(c5ccccn5)CC4)CC3)sc2c1 | 30.1 |  | 14.6 µM [rising, single point]
36 | Cc1ccc(OCCN2CCN(C(=O)CCC(=O)Nc3nnc(C)s3)CC2)cc1 | 26 | 32.6 µM [rising, single point] | 
37 | Cc1ccc(CSCC(Nc2ccc(C(=O)O)cc2[N+](=O)[O-])C(=O)O)cc1 (stereo unspecified) | 8.18 | 1.3 µM [falling, full curve, poor fit] | 
38 | c1coc(CN2CNc3nc4ccccc4n3C2)c1 | 29.7 | 9.2 µM [rising, single point] | 
39 | CNC[C@@H](CC1CCCCC1)NC[C@H](CC(C)C)NCCc1cccc(C(F)(F)F)c1 | -35.6 |  | 23.1 µM [falling, single point]
40 | COc1cc(OC)c(OC)cc1CN(C)CCc1ccccn1 | 1.66 | 8.2 µM [falling, partial curve, poor fit] | 5.8 µM [falling, single point]

An excerpt from above in order of number of heavy atoms, smallest number first:
Row | Structure (SMILES) | cell number change [%] | AC50 [1] | AC50 [2]
8 | COc1ccc2oc(C(=O)NC(C)(C)C)c(C)c2c1 | -1.09 | 23.1 µM [falling, single point] | 
19 | C=CCc1ccc(OCC(O)CN2CCN(c3ccccc3)CC2)c(OC)c1 (stereo unspecified) | -38.5 | 18.4 µM [falling, single point] | 18.4 µM [falling, single point]
35 | CCOc1ccc2nc(N3CCC(C(=O)N4CCN(c5ccccn5)CC4)CC3)sc2c1 | 30.1 |  | 14.6 µM [rising, single point]

Remaining list, next part

Row | Structure (SMILES) | cell number change [%] | AC50 [1] | AC50 [2]
41 | COC(=O)c1ccccc1OC(=O)c1ccc(Br)o1 | -32.9 | 2.31 µM [falling, partial curve] | 0.731 µM [falling, full curve]
42 | CCOc1ccc(N2C(=O)/C(=C\c3ccc(OC)c(O)c3)S(=O)(=O)C2c2cccc([N+](=O)[O-])c2)cc1 (stereo unspecified) | -3.92 | 0.146 µM [falling, full curve, poor fit] | 0.13 µM [falling, full curve, poor fit]
43 | CC(C)C[C@@H](COc1ccccc1)N1CCN(Cc2ccccc2)CCC1=O | 22.7 | 16.4 µM [falling, single point] | 
44 | Cn1c(=O)c(C(=O)COC(=O)c2cc(C(F)(F)F)nc3ccccc23)c(N)n(Cc2ccccc2)c1=O | 16 | 0.326 µM [rising, full curve] | 
45 | CCN(CC)S(=O)(=O)c1cccc(C(=O)NC2CCCCC2)c1 | -11.4 | 11.6 µM [rising, partial curve] | 
46 | COc1ccc(CNC(=O)CN(Cc2ccccc2OC)C(=O)c2csnn2)cc1 | 10.7 |  | 
47 | CCOc1ccc(NC(=O)C2CCN(C(=O)C3CC(=O)N(c4ccc(C)cc4)C3)CC2)cc1 (stereo unspecified) | 30.7 | 6.51 µM [rising, single point] | 
48 | Cc1cccc(NCc2nc3ccccc3n2Cc2ccccc2)c1 | 7.55 |  | 2.31 µM [rising, partial curve]
49 | Cc1ccc(Cl)cc1NC(=S)Nn1cnnc1 | 21.6 | 29.1 µM [rising, single point] | 
50 | COc1cccc(C(=O)NCCC(=O)NCc2cc(=O)n(C)c(=O)n2C)c1 | 15.8 | 0.13 µM [falling, full curve, poor fit] | 
51 | CCOC(=O)C1(CC2CC2)CCN(Cc2cnc(-c3ccccc3C)nc2)CC1 | 13.2 | 8.2 µM [rising, partial curve] | 
52 | CC(C)CSc1ccc(S(=O)(=O)NCC(=O)O)cc1[N+](=O)[O-] | -32 |  | 7.31 µM [falling, partial curve, poor fit]
53 | COc1ccc(S(=O)(=O)N2CCOCC2)cc1NC(=O)c1cc2ccccc2o1 | 110 |  | 16.4 µM [rising, partial curve]
54 | Cc1cccc(C(=O)NCC(=O)N2CCCCCCC2)c1 | -10.9 | 29.1 µM [falling, single point] | 
55 | O=C(/C=C/c1ccccc1Cl)c1cccnc1 |  | 4.11 µM [falling, partial curve] | 
56 | Cc1nnc(C)n1/N=C/c1cccc([N+](=O)[O-])c1 |  | 29.1 µM [falling, single point] | 
57 | C#CCOCCOCCOCCNc1nc(N2CCN(C(=O)Cn3cc(CCCN=C(N)N)nn3)CC2)nc(N2CCN(C(=O)[C@H]([C@@H](C)CC)n3cc(CCCCN)nn3)CC2)n1 | -0.132 |  | 0.116 µM [falling, full curve, poor fit]
58 | COc1cccc(C(=O)NCc2ccccc2OC)c1 | 5.66 | 18.4 µM [rising, single point] | 
59 | O=C1CSc2ccc(S(=O)(=O)CCC(=O)NC3CCCCC3)cc2N1 | -24.8 | 29.1 µM [rising, single point] | 
